This passage reports host macrophage viability results from the supplement of paper PMC12578635.

± gives the standard deviation of the averaged measurements. The list shows a part of the results. Many values rest on one well or one pass, so single values are uncertain.

The assay deals with RAW 264.7 macrophages infected with S. aureus JE2-lux. In words: host macrophage viability (CellTiter-Fluor) relative to DMSO vehicle; higher = more viable host cells. As to conditions: 10 µM; treatment time 4 h; gentamicin 50 µg/ml.
For the compound `O=C(c1ccc(Cn2c(=O)c(=O)[nH]c3cccnc32)cc1)N1CCN(c2ncccn2)CC1`, the host macrophage viability was found to be 119%. For `C=CCNC(=O)CCCCCn1c(=O)[nH]c2ccsc2c1=O`, the host macrophage viability was 114%. As for `[N-]=[N+]=NC1CC(CO)OC1n1ccc(=O)[nH]c1=O` (stereo not drawn), the host macrophage viability is 109%. Turning to `O=C(Nc1cc(C(F)(F)F)ccc1Cl)c1cnc2n(c1=O)CCS2`, the host macrophage viability stood at 106%. The value for `CC1CCc2c(sc(NC(=O)CN(C(=O)c3ccco3)C3CCCCC3)c2C(N)=O)C1` (stereo not drawn) was 103%; that for `CCc1ccc(NC(=O)c2cnn3c(N)c(C#N)c(-c4ccc(Br)cc4)nc23)cc1` was 109%.

For `CC(=O)c1ccc(Nc2nc(N3CCOCC3)nc(N3CCOCC3)n2)cc1`, the host macrophage viability came out at 107%. With `C/C(=N\N)c1c(-c2ccccc2)c2cc(C)ccc2[nH]c1=O`, the host macrophage viability worked out at 114%. In the case of `O=C(N/N=C/c1csc([N+](=O)[O-])c1)c1cc2ccccc2cc1O`, the host macrophage viability turned out to be 103%. In the case of `CCOCCCNC(=O)C(=O)c1cn(CC(=O)N2CCCCCC2)c2ccccc12`, the host macrophage viability is 106%. As to `COc1ccc(NC(=O)CSc2nccn(-c3ccc(C)c(F)c3)c2=O)c(OC)c1`, the host macrophage viability amounted to 130%. Regarding `COc1cc2nc(NC(=O)c3ccc(C(C)=O)cc3)sc2cc1OC`, the host macrophage viability was 116%.

Take `O=C(NCCS(=O)c1c(-c2ccc(F)cc2)[nH]c2ccccc12)C(=O)c1c[nH]c2ccccc12` (stereo not drawn): the host macrophage viability was found to be 117 ± 7.4%. With `O=C(CSc1nnc2sc3ccccc3n12)NCc1ccco1`, the host macrophage viability came out at 131%.

Turning to `COCCCNc1nc2c(c(=O)[nH]c(=O)n2C)n1CC(=O)c1ccccc1`, the host macrophage viability turned out to be 126%. `CCCCN(C)C(=O)CSc1nccnc1N1CCN(c2cccc(C)c2C)CC1`: the host macrophage viability amounted to 77.6%. As for `CCn1cc(NC(=O)Nc2nccs2)c2ccccc21`, the host macrophage viability turned out to be 135%.

Consider `COc1cccc(OC(C)C(=O)Nc2nc3c(s2)CCc2c-3cnn2C)c1` (stereo not drawn), for which the host macrophage viability amounted to 101%. On to `COc1ccc(C2c3cccn3CCN2C(=O)Nc2ccc(C)c(C)c2)cc1` (stereo not drawn), for which the host macrophage viability was found to be 124%. With `O=S(=O)(c1ccc(N2CCC(CNc3ncccn3)CC2)cc1)N1CCCC1`, the host macrophage viability stood at 124%.

`COc1ccccc1NC(=O)CSc1ncnc2c1sc1nc3cc(C)ccc3cc12`: the host macrophage viability stood at 111%.

`Cn1c(=O)c2c(SCc3ccc(Cl)cc3Cl)ccnc2n(C)c1=O`: the host macrophage viability came out at 125%.

On to `O=C(NCCC1CCCCN1S(=O)(=O)c1ccccc1)C(=O)NCc1cccnc1` (stereo not drawn), for which the host macrophage viability is 116%.

Take `COc1cccc(/C=N/NC(=O)c2cc3cc([N+](=O)[O-])ccc3s2)c1O`: the host macrophage viability worked out at 131%.

Turning to `Cc1cccc(NC(=O)CSc2nnc3sc4ccccc4n23)c1`, the host macrophage viability is 116 ± 16%. Regarding `CCc1cccc(Nc2cc(-n3nc(C)cc3C)ncn2)c1`, the host macrophage viability is 101%. As for `CCOCCCNc1nc(-c2nnc(-c3ccccc3)o2)nc2ccccc12`, the host macrophage viability stood at 105%.

Turning to `O=C1Nc2ccccc2/C1=N/NC(=O)C(c1ccccc1)c1ccccc1`, the host macrophage viability amounted to 105%. Regarding `Cc1sc2nc(SCC(=O)c3ccc4c(c3)NC(=O)CO4)nc(N)c2c1C`, the host macrophage viability turned out to be 111%. As to `Cc1c(C)n(CCCN2CCOCC2)c2ncn3nc(C(C)N4C(=O)c5ccccc5C4=O)nc3c12` (stereo not drawn), the host macrophage viability is 94.8%. Turning to `CC1=C(C(=O)OCc2ccccc2)C(c2ccc(O)cc2)n2ncnc2N1` (stereo not drawn), the host macrophage viability was 123%.

Take `Cc1cc(NC(=O)CSc2nnc3ccccn23)no1`: the host macrophage viability came out at 105%. The value for `Cc1ccc(-c2nsc(NC(=O)COc3ccccc3)n2)s1` was 119%. On to `COc1ccccc1N1CCN(c2cc(=O)n(-c3ccc(Br)cc3)c(=O)[nH]2)CC1`, for which the host macrophage viability was found to be 119 ± 5%. The value for `CCN1CCN(CCNC(=O)c2cc3n(n2)CCCN(Cc2ccccc2)C3=O)CC1` was 117%; that for `COC(=O)c1ccsc1NC(=O)COc1ccc(Cl)cc1Cl` was 119%; that for `CCOC(=O)c1c(-c2ccc(F)cc2)csc1NC(=O)CN1CCOCC1` was 101%.

Turning to `CCN(CC)S(=O)(=O)c1ccc(C(=O)Nc2ncnc3sccc23)cc1`, the host macrophage viability was 116%. Turning to `Cc1cccc(NC(=O)C(C)n2c(C)nc3onc(C)c3c2=O)c1` (stereo not drawn), the host macrophage viability was found to be 113%.

For the compound `Cc1ccccc1C1CC(=O)c2c(C)nc(N)nc2C1` (stereo not drawn), the host macrophage viability amounted to 113%. Turning to `O=C1CC(NS(=O)(=O)c2cccs2)CN1c1ccc(Cl)cc1` (stereo not drawn), the host macrophage viability was 110%. As to `CCS(=O)(=O)c1ccc(C(=O)Nc2nc3c(Cl)c(Cl)ccc3s2)cc1`, the host macrophage viability came out at 111%. Regarding `CCCNC(=O)Cn1nc(-c2ccc(F)cc2)c2cnc3cc(OC)c(OC)cc3c21`, the host macrophage viability is 124%.

Regarding `CCc1ccccc1NC(=O)Cn1c(C)cc(=O)n2nc(-c3cccc(C)c3)nc12`, the host macrophage viability was determined as 102%. For `Cc1cc(=O)n2c3ccccc3n(CC(O)CNc3ccc(C(C)C)cc3)c2c1C#N` (stereo not drawn), the host macrophage viability was 135%. For the compound `CCn1cc(C(=O)Nc2ccc(OC(F)(F)F)cc2)c2nn(-c3ccccc3)c(=O)c-2c1`, the host macrophage viability was 110%. The value for `Cc1nc2ccccc2c(=O)n1-c1cccc(NC(=O)c2cc([N+](=O)[O-])cc([N+](=O)[O-])c2)c1` was 104%; that for `CCC(Oc1ccc(F)cc1)C(=O)Nc1noc(-c2ccccc2C)n1` (stereo not drawn) was 103%; that for `NC1=NN(c2ccccc2)C(=O)/C1=N\Nc1ccc2c(c1)OCO2` was 105%.

In the case of `COC(=O)c1ccc(C(=O)NC(=S)Nc2sc3c(c2C#N)CCCCC3)cc1`, the host macrophage viability came to 115 ± 5.6%. Consider `Nc1cc(Cl)c([N+](=O)[O-])cc1OCc1ccccc1`, for which the host macrophage viability turned out to be 105%. On to `O=C(Oc1c(CN2CCOCC2)cc(Cl)c2cccnc12)c1cccc([N+](=O)[O-])c1`, for which the host macrophage viability was 139%. Consider `Cc1ccc(CSc2oc(-c3ccco3)nc2S(=O)(=O)c2ccccc2)cc1`, for which the host macrophage viability turned out to be 111%.

With `COc1ccc(-c2nc3sc(C)nn3c2NC2CCCCC2)cc1`, the host macrophage viability was 126%.

In the case of `COc1cccc(NCc2nc3[nH]c(C)c(Cc4ccccc4)c(=O)n3n2)c1`, the host macrophage viability was found to be 94.6%. `COC(=O)NC(=O)c1c(NC(=O)c2cc3ccccc3oc2=O)sc(C)c1C`: the host macrophage viability worked out at 118%. Consider `Cc1ccc(/C=C2/SC(=S)N(c3ccc(C(=O)O)c(O)c3)C2=O)o1`, for which the host macrophage viability worked out at 118%. Turning to `Oc1ccc(Br)c(C2Nc3ccc(F)cc3[C@H]3OCC[C@@H]23)c1` (stereo partly drawn), the host macrophage viability is 116%.

Consider `COCCOC(=O)c1c(C)oc2cc(Br)c(OCC(N)=O)cc12`, for which the host macrophage viability turned out to be 94.5%.

Regarding `O=C(Nc1ccc2c(c1)CCC2)C1CCN(C(=O)Nc2ccc(Cl)cc2)CC1`, the host macrophage viability turned out to be 120%. The value for `O=[N+]([O-])c1cccc(NC(c2ccco2)c2ccc3cccnc3c2O)c1` (stereo not drawn) was 141%; that for `O=C(Nc1c(-c2ccccc2)nc2ccccn12)c1cccc([N+](=O)[O-])c1` was 112 ± 5.3%. In the case of `COc1cc(NC(=O)Cn2cccc2-c2nc(-c3ccccc3)cs2)cc(OC)c1`, the host macrophage viability turned out to be 126%. For the compound `Cc1c(-c2cc(C(=O)O)c3cc(Br)ccc3n2)nnn1-c1ccccc1`, the host macrophage viability turned out to be 127%.

Take `CCOC(=O)Cn1cnc2nn(-c3ccccc3)cc2c1=O`: the host macrophage viability is 116%. On to `CCS(=O)(=O)c1ccc(C(=O)Nc2ccc3sc(C)nc3c2)cc1`, for which the host macrophage viability is 88.4%.

Take `CCN(CC)C(=O)Cn1cc(C(=O)C(=O)NCc2ccc3c(c2)OCO3)c2ccccc21`: the host macrophage viability amounted to 118%.

For the compound `O=C(NCCn1nnn(-c2ccccc2)c1=O)c1ccc(=O)[nH]n1`, the host macrophage viability stood at 115%.
